Taken from: PubChem BioAssay AID1259308 (NCATS, 2017)

Purpose: 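Candidate targets for better recombinant protein yield in mammalian cells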 (primary screen)
Cells: human HEK293 embryonic kidney cells stably expressing firefly luciferase (HEK-CMV-Luc2-Hygro)
Knock-down reagent: single siRNA against human genes, 0.8 pmol siRNA per well
Time to read-out: 72 h
Read-out: 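Luciferase light (ONE-Glo) measured on one replicate plate set and viability (CellTiter-Glo) on the other, scaled to a negative control siRNA, with robust z-scores and luciferase per cell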
Scale: total luciferase, z-score: higher = more reporter protein produced
Call rule: 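An siRNA counts as active if its total luciferase robust z-score exceeds 3; genes with two or more such siRNAs out of three were retested with fresh siRNAs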
Calls: active = raised luciferase; inactive = no rise
The deposit covers about 59,000 reagents; below is a part drawn at random. About 1,510 of all reagents (2.6%) were called active. 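Calls use total luciferase alone and ignore viability, so some active siRNAs may act by altering cell number.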 The numbers tell different reagents against one gene apart. Not all columns of the deposit are shown.

target | reagent no. | total luciferase, z-score | Outcome
L3MBTL2 | 1 | 1.52 | inactive
L3MBTL2 | 2 | 1.47 | inactive
L3MBTL2 | 3 | 1.79 | inactive
CHRNA4 | 1 | 0.762 | inactive
CHRNA4 | 2 | 0.184 | inactive
CHRNA4 | 3 | 0.202 | inactive
HARS1 | 1 | 1.44 | inactive
HARS1 | 2 | -2.72 | inactive
HARS1 | 3 | 1.13 | inactive

Next part, starting with the last 2 of the part before.
target | reagent no. | total luciferase, z-score | Outcome
HARS1 | 2 | -2.72 | inactive
HARS1 | 3 | 1.13 | inactive
NOX1 | 1 | 0.479 | inactive
NOX1 | 2 | 0.809 | inactive
NOX1 | 3 | -0.223 | inactive
TADA3 | 1 | -1.03 | inactive
TADA3 | 2 | -0.789 | inactive
TADA3 | 3 | -1.4 | inactive
ARMCX6 | 1 | -0.689 | inactive
ARMCX6 | 2 | -0.826 | inactive
ARMCX6 | 3 | -0.541 | inactive
PPIP5K1 | 1 | 0.0275 | inactive
PPIP5K1 | 2 | 0.434 | inactive
PPIP5K1 | 3 | -1.24 | inactive
DUSP7 | 1 | 0.774 | inactive
DUSP7 | 2 | -0.967 | inactive
DUSP7 | 3 | -2.03 | inactive
